Reference: PubChem BioAssay AID1671190 (National Center for Advancing Translational Sciences (NCATS), 2021)
Among all 580,000 compounds or so, about 6,100 (1.1%) were called active. The inconclusive results got no clear call from the source; some entries with a clear call stand among them for comparison. The call rests on the fitted dose curve; in most records, active means well fitted inhibition curve with a large enough effect; inconclusive means small, poorly fitted or top-dose-only effect, or another doubt; inactive means no such curve, though single readings can be large or run the other way. A potency beside an inconclusive call is a rough fit, not a confirmed value. A structure can be active in one record and inactive in another.

Chains of the proteins cited; added tags and fusions are not shown. Lines headed by an entry give the natural chain unless they say otherwise; changes in a name come on top.
UniProt P18054: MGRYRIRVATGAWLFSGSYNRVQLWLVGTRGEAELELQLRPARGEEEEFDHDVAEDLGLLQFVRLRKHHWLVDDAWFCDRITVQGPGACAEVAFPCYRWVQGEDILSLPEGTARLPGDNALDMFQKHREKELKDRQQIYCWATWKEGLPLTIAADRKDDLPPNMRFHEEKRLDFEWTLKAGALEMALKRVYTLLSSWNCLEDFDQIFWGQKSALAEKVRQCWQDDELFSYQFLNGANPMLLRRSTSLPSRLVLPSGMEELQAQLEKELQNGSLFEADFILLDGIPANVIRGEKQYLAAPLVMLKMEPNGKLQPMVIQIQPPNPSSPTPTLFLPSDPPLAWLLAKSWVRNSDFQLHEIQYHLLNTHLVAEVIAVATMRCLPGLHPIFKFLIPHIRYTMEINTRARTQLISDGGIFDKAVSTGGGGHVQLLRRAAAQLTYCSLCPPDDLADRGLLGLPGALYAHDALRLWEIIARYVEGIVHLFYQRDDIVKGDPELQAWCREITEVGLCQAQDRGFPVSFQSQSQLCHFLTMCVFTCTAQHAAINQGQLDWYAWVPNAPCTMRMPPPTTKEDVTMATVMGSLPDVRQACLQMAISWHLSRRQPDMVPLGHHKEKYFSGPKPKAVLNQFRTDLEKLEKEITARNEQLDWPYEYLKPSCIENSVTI

Target: Polyunsaturated fatty acid lipoxygenase ALOX12 (Homo sapiens) (UniProt P18054)
Assay: Primary qHTS assay for inhibitors of human arachidonate 12S-lipoxygenase (ALOX12): Round 2
Conditions: purified 12hLO, xylenol orange hydroperoxide absorbance; activity change, negative = inhibition: at 108 µM (top of the series) unless noted
Method in brief: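 Purified human 12hLO (150 nM final) in 25 mM Hepes, 0.01% Triton X-100, pH 7.0 was preincubated 15 min at room temperature with compound. Then 40 uM arachidonic acid was added, 30 min. Hydroperoxide was read by Fe-XO absorbance ratio 573/405 nm.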
On the % scale 0 is the no-effect control and ±100 the full control effect; potency means the concentration at half of the fitted maximal effect.

| Structure (SMILES) | Potency | activity change, negative = inhibition |
| --- | --- | --- |
| N#Cc1ccccc1S(=O)(=O)N1CCN(C(=O)CCC2CCCC2)CC1 | inconclusive: 44.7 µM [inhibitor, partial curve] | – |
| O=C(/C=C/c1ccc(O)c(O)c1)c1ccc(S(=O)(=O)N2CCCCCC2)cc1 | active: 22.4 µM | – |
| Cc1cn[nH]c1 | active: 3.43 µM | – |
| O=C(Nc1ccc(Br)c(C(F)(F)F)c1)c1ccccc1 | inconclusive: 89.1 µM [inhibitor, partial curve, poor fit] | – |
| Cc1oc2cc3oc(=O)c(CC(=O)NCC(=O)N[C@@H](C(=O)O)c4ccccc4)c(C)c3cc2c1C | – | inactive: -7.99% |
| COc1ccc([C@H]2N[C@]3(CCCN(Cc4ccccc4)C3=O)[C@H]3C(=O)N(Cc4ccccc4)C(=O)[C@@H]23)cc1 | inconclusive: 79.4 µM [inhibitor, partial curve, poor fit] | – |
| Cc1ccc(Cl)cc1N1CCN(C(=O)C2(S(=O)(=O)c3ccc(Cl)cc3)CC2)CC1 | inconclusive: 112 µM [inhibitor, single point] | – |
| CC(C)(C)S(=O)CCC(=O)O (stereo unspecified) | – | inactive: -13.3% |
| O=[N+]([O-])c1cc(S(=O)(=O)Nc2ccc(Cl)cc2)ccc1N/N=C/c1ccccc1Br | inconclusive: 79.4 µM [inhibitor, single point] | – |
| Cc1cccc(N=Nc2cn[nH]c2-c2ccco2)c1 | inconclusive: 39.8 µM [inhibitor, partial curve, poor fit] | – |
| COc1ccc(NC(=O)CN(Cc2ccccc2)Cc2ccccc2)cc1S(N)(=O)=O | – | inactive: 3.88% |
| COc1ccc(NC2=NC(=S)N(c3ccccc3C)C23CCCCC3)cc1 | – | inactive: -4.85% |
| CCCCCCNc1ccc(C(=O)OCC)cc1 | inconclusive: 50.1 µM [inhibitor, partial curve, poor fit] | – |
| Cc1cc(C)c2[nH]c(=O)c(C(c3nnnn3C(C)(C)C)N3CCN(C(=O)c4ccco4)CC3)cc2c1 (stereo unspecified) | – | inactive: -26% |
| COc1ccc(Cc2nnc(Nc3ccc4ccccc4c3)[nH]c2=O)cc1OC | inconclusive: 44.7 µM [inhibitor, partial curve, poor fit] | – |
| Cc1ccc2ncccc2c1Cn1ccnc1-c1cc2n(n1)CCCNC2 | inconclusive: 10 µM [inhibitor, full curve, poor fit] | – |
| Cc1ccccc1CN1CCN2C=C(C(=O)NCC3CC3)OC2=NC1=O | – | inactive: -7.98% |
| Cc1cccc(-n2ncc3c(NC4CCCCCC4)ncnc32)c1 | inconclusive: 56.2 µM [inhibitor, partial curve, poor fit] | – |
| Cc1nnc(N/N=C/C(C)c2ccccc2)[nH]c1=O (stereo unspecified) | – | inactive: 0% |
| Cn1c(C(=O)c2ccccc2)nc2ccccc21 | – | inactive: 37.7% |
| COc1ccc(-c2cc(NC(C)=O)c3ncc(-c4ccccc4)n3c2)c(OC)c1 | inconclusive: 44.7 µM [inhibitor, partial curve] | – |
| CCC1(c2ccccc2)NC(=O)N(CC(=O)Nc2cc(S(=O)(=O)N3CCCCC3)ccc2N(C)C)C1=O (stereo unspecified) | – | inactive: -21.4% |
| O=C(COC(=O)CC12CC3CC(CC(Br)(C3)C1)C2)NC(=O)NCc1ccco1 | inconclusive: 35.5 µM [inhibitor, partial curve, poor fit] | – |
| CCOC(=O)c1c(S(=O)(=O)N2CCCC2)nn(CC)c1C | active: 12.6 µM | – |

| Structure (SMILES) | Potency | activity change, negative = inhibition |
| --- | --- | --- |
| N#Cc1c(-c2cccnc2)c2c([nH]c1=O)-c1ccccc1OC2 | inconclusive: 15.8 µM [inhibitor, partial curve, poor fit] | – |
| S=c1nc(-c2ccccc2Cl)[nH][nH]1 | active: 15.8 µM | – |
| COc1ccc(S(=O)(=O)N2CCCCC2)cc1NC(=O)CNc1ccc(F)cc1C | inconclusive: 100 µM [inhibitor, single point] | – |
| COC(=O)CCNC(=O)c1ccc(-c2ccccc2)cc1 | – | inactive: 31.1% |
| Cc1ccc(-c2nnc(CCC(=O)Nc3cccc(S(=O)(=O)NC4=NCCC4)c3)o2)cc1 | inconclusive: 0.891 µM [inhibitor, partial curve, poor fit] | – |
| CC1CC(C)CN(CC(=O)c2c[nH]c3ccccc23)C1 (stereo unspecified) | inconclusive: 112 µM [inhibitor, partial curve, poor fit] | – |
| Cc1ccc(C(=O)NC2CCN(C(=O)Nc3ccccc3)CC2)cc1 | inconclusive: 44.7 µM [inhibitor, partial curve, poor fit] | – |
| CCN(Cc1ccc(OC)c(F)c1)C(=O)CN1CCC(c2nc3ccccc3s2)CC1 | – | inactive: 15.7% |
| COc1ccc(Nc2cc(C(=O)NCCCN3CCN(c4ccc(OC)cc4)CC3)c3ccccc3n2)cc1 | inconclusive: 15.8 µM [inhibitor, full curve, poor fit] | – |
| COc1c(F)c(F)c(C(=O)Nc2ccc3oc(-c4ccncc4)nc3c2)c(F)c1F | – | inactive: 0% |
| COc1ccc(CCNC(=O)c2cc(S(=O)(=O)N3CCCCC3)ccc2Cl)cc1 | – | inactive: 3.17% |
| Cc1ccc(S(=O)(=O)N(C)C)cc1NC(=S)NC(C)CCC(C)C (stereo unspecified) | inconclusive: 50.1 µM [inhibitor, partial curve, poor fit] | – |
| O=C(NC(=S)Nc1ccccc1N1CCOCC1)c1ccc(-c2cc(Cl)ccc2Cl)o1 | inconclusive: 10 µM [inhibitor, full curve] | – |
| CCOC(=O)C1CCCN(c2c(Nc3cc(C)cc(C)c3)c(=O)c2=O)C1 (stereo unspecified) | – | inactive: -5.55% |
| CC(C)(C)C(=O)/C(C#N)=C/c1ccccc1OCc1ccccc1Cl | inconclusive: 44.7 µM [inhibitor, partial curve, poor fit] | – |
| Cc1ccc(CNC(=O)c2coc(=O)c3ccccc23)o1 | inconclusive: 20 µM [inhibitor, partial curve] | – |
| Cc1nsc(N)c1C(=O)N(C)CCOc1ccccc1Cl | inconclusive: 31.6 µM [inhibitor, partial curve, poor fit] | – |
| COc1ccc(C(=O)N2C[C@@H](Oc3cccnc3)C[C@H]2C(=O)N2CCOCC2)cc1 | inconclusive: 39.8 µM [inhibitor, full curve] | – |
| COc1cccc(-c2nc(-c3ccccc3)no2)c1 | inconclusive: 158 µM [inhibitor, partial curve, poor fit] | – |
| CC(CN1CCCCC1)OC(=O)c1cc(C(C)(C)C)cc(C(C)(C)C)c1 (stereo unspecified) | inconclusive: 4.47 µM [inhibitor, full curve, poor fit] | – |
| Cc1ccc(C)c(SCC(=O)Nc2cccc(S(=O)(=O)NC3=NCCCCC3)c2)c1 | – | inactive: 9.81% |
| CCOCc1cccc(CN)c1 | inconclusive: 79.4 µM [inhibitor, single point] | – |
| C=CCN1C(=O)CN=C1Nc1ccc(F)cc1 | inconclusive: 141 µM [inhibitor, single point] | – |
| CC(C)NC(=O)CN1C(=O)NC2(CCC(C(C)(C)C)CC2)C1=O (stereo unspecified) | – | inactive: -3.48% |

Looked up by structure from the entries so far (three):

| Structure (SMILES) | Potency | activity change, negative = inhibition |
| --- | --- | --- |
| COc1c(F)c(F)c(C(=O)Nc2ccc3oc(-c4ccncc4)nc3c2)c(F)c1F | – | inactive: 0% |
| N#Cc1c(-c2cccnc2)c2c([nH]c1=O)-c1ccccc1OC2 | inconclusive: 15.8 µM [inhibitor, partial curve, poor fit] | – |
| CC(C)NC(=O)CN1C(=O)NC2(CCC(C(C)(C)C)CC2)C1=O (stereo unspecified) | – | inactive: -3.48% |

The results go on:

| Structure (SMILES) | Potency | activity change, negative = inhibition |
| --- | --- | --- |
| COc1ccc(Nc2nc(CSc3nnc4n3CCCCC4)cs2)cc1 | inconclusive: 28.2 µM [inhibitor, partial curve, poor fit] | – |
| Nc1nc(N)c(Br)c(Nc2ccc(Cl)c(Cl)c2)n1 | inconclusive: 112 µM [inhibitor, single point] | – |
| Cn1c2ccccc2c(=O)c2ccc(C#Cc3ccccn3)cc21 | inconclusive: 31.6 µM [inhibitor, partial curve] | – |
| COc1ccc2cc(C)c3nnc(SCC(=O)Nc4nc(-c5ccccc5)cs4)n3c2c1 | – | inactive: 0.312% |
| COc1ccc2nc(NC(=O)c3cc(=O)c4ccc(C)cc4o3)sc2c1 | inconclusive: 44.7 µM [inhibitor, partial curve, poor fit] | – |
| O=c1[nH]ccn1C1CCN(Cc2cccc3ccccc23)CC1 | inconclusive: 89.1 µM [inhibitor, partial curve] | – |
| COc1ccccc1/C=C1\SC(=S)N(CCC(=O)Nc2cc(C)on2)C1=O | inconclusive: 63.1 µM [inhibitor, partial curve, poor fit] | – |
| COc1cc(C(=O)N2[C@@H]3CC[C@H]2CC(NC(=O)c2ccncc2)C3)cc(OC)c1OC (stereo partly specified) | – | inactive: 18.2% |
| Cc1ccc(-c2ccc(S(=O)(=O)N3CCCC3)cc2)cc1 | – | inactive: -2.88% |
| O=C(O)CCCNC(=O)CC1S/C(=N/N=C/c2ccccc2O)NC1=O (stereo unspecified) | – | inactive: -0.317% |
| CCCCCCc1ccc(C(=O)Nc2ccc(C)cc2)cc1 | inconclusive: 31.6 µM [inhibitor, single point] | – |
| COc1ccccc1N1CCN(c2ccc([N+](=O)[O-])cc2Cl)CC1 | – | inactive: -2.91% |
| CCCCN(C(=O)c1[nH]c(C)c(C(C)=O)c1C)c1c(N)n(CCCC)c(=O)[nH]c1=O | inconclusive: 35.5 µM [inhibitor, partial curve, poor fit] | – |
| CCc1ccc(NC(=O)CSc2nccn2-c2ccc(OC)cc2)cc1 | inconclusive: 89.1 µM [inhibitor, partial curve, poor fit] | – |
| c1coc(-c2nc3ccccc3nc2-c2ccco2)c1 | active: 50.1 µM | – |
| COc1ccc(C(=O)/C(=C\c2cccc(Cl)c2)c2nc3ccccc3o2)cc1 | – | inactive: -1.2% |
| Fc1cc(COc2ccc(-c3nnco3)cc2)c2ncccc2c1 | inconclusive: 25.1 µM [inhibitor, single point] | – |
| O=C(CCN1C(=O)c2ccccc2C1=O)NC(=S)Nc1ccccc1Cl | inconclusive: 44.7 µM [inhibitor, partial curve, poor fit] | – |
| COc1ccccc1-c1cncnc1NCc1cccc(C)c1 | inconclusive: 7.94 µM [inhibitor, full curve, poor fit] | – |
| CCCSc1nnc(CSc2nc3ccccc3s2)n1-c1ccccc1 | – | inactive: -5.71% |
| Cc1ccc(N/N=C/C=C/c2ccccc2[N+](=O)[O-])c(C)c1 | active: 15.8 µM | – |
| Cc1ccc(Nc2cc(C)nc3c(C)c(C)ccc23)c(C)c1 | – | inactive: -23.5% |
| O=C(C[n+]1ccc(/C=N/O)cc1)N1CCCCC1 | inconclusive: 100 µM [inhibitor, partial curve, poor fit] | – |

2 of the compounds above, bar-delimited.
Structure (SMILES) | Potency | activity change, negative = inhibition
COc1ccc(C(=O)/C(=C\c2cccc(Cl)c2)c2nc3ccccc3o2)cc1 | – | inactive: -1.2%
Cc1ccc(N/N=C/C=C/c2ccccc2[N+](=O)[O-])c(C)c1 | active: 15.8 µM | –
